Test results reported in paper PMC6274353, “The Blood-Brain Barrier Permeability of Lignans and Malabaricones from the Seeds of Myristica fragrans in the MDCK-pHaMDR Cell Monolayer Model” (Molecules, 2016).

Test: bidirectional transport across the MDCK-pHaMDR cell monolayer (in vitro BBB model)
Settings: dog, MDCK-MDR1, pH 7.35
Protocol: The MDCK-pHaMDR cells were seeded at a density of about 8 × 10^4 cells/mL on the 12-well Transwell® plates. After an eight-day culture, the cells reached confluence and differentiation for the transport study.
On the 8th day, the monolayers were washed twice and shaken at 55 rpm for 30 min with HBSS at 37 °C. Then, the TEER was measured with an epithelial volt-ohm meter (EVOM; World Precision Instrument) to examine the monolayer's integrity. Only those with the TEER values above 1000 Ω·cm^2 were qualified for the transport.
The bidirectional transport assay was initiated by adding a test compound to either the apical (0.5 mL for apical to basolateral transport, A→B) or the basolateral (1.5 mL for basolateral to apical transport, B→A) side. After shaking at 55 rpm and 37 °C for a certain time, samples (A→B: 400 µL from the apical side and 1300 µL from the basolateral side; B→A: 450 µL from the apical side and 450 µL from the basolateral side) were collected, immediately frozen, lyophilized and preserved below –20 °C before analysis.
Papp of each compound was calculated based on the following equation: (1) Papp = (ΔQ/Δt)/(AC0) (cm/s) where ΔQ/Δt is the appearance rate of the test compound at the receiver side (µmol/s), C0 is the initial concentration of the test compound at the donor side (µM), and A is the membrane surface area (cm^2). […]

Papp: 0.472 ± 0.017 ×10⁻⁶ cm/s
SMILES: CC(C)NCC(O)COc1ccc(CC(N)=O)cc1 (stereo not shown) [atenolol, reference compound]
